# Patent publication US20240209076A1
# The chains behind the UniProt entries cited, without tags or fusion partners. Residues count along the entry.
# UniProt P05231, residues 30-212: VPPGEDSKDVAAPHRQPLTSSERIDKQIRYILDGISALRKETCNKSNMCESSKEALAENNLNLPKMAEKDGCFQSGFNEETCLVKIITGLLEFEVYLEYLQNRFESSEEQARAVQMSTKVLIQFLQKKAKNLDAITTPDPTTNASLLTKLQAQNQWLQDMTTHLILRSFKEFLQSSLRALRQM
# Where a chain is given by its changes, count along the chain named. Numbers in names are those of the source. Results are given in words; binding and its absence hold for the method and conditions named. Some entries that bind do so weakly or less than the wild type.
# B1: anti-IL-6 antibody, heavy chain S35H G66D L100S, light chain M32L/M50D/N52S/M88Q (antibody, V domains shown)
# VH: EVQLVESGGGLVQPGGSLRLSCAASGFTFSPFAMHWVRQAPGKGLEWVAKISPGGSWTYYSDTVTDRFTFSLDTSKSTAYLQMNSLRAEDTAVYYCARQSWGYYALDIWGQGTLVTVSS
# VL: DIQLTQSPSSLSASVGDRVTITCSASISVSYLYWYQQKPGKAPKLLIYDDSSLASGVPSRFSGSGSGTDFTLTISSLQPEDFATYYCQQWSGYPYTFGQGTKVEIK
# B2: anti-IL-6 antibody, heavy chain S35H G66D L100G, light chain M32L/M50D/N52S/M88Q (antibody, V domains shown)
# VH: B1 VH with S100G
# VL: B1 VL
# B3: anti-IL-6 antibody, heavy chain S35H G66D L100T, light chain M32L/M50D/N52S/M88Q (antibody, V domains shown)
# VH: B1 VH with S100T
# VL: B1 VL
# B4: anti-IL-6 antibody, heavy chain S35H G66D L100Q, light chain M32L/M50D/N52S/M88Q (antibody, V domains shown)
# VH: B1 VH with S100Q
# VL: B1 VL
# B5: anti-IL-6 antibody, heavy chain S35H G66D L100K, light chain M32L/M50D/N52S/M88Q (antibody, V domains shown)
# VH: B1 VH with S100K
# VL: B1 VL
# Biological target: recombinant human IL-6 (human) (UniProt P05231)
# Experiment: SPR, purified antibody captured on Protein A, 37 C
row,Binder,binding
1,B1,binds
2,B2,binds
3,B3,binds
4,B4,binds
5,B5,binds
